Data from the M2OR odorant receptor database.
Some of the results follow. Calls are pooled over several reports, among them a noisy single-well screen.

Experiments:
Conditions in all cases: stereoisomer not certain
O52I2 = system: T1, O52I2
T1 sequence (whole entry): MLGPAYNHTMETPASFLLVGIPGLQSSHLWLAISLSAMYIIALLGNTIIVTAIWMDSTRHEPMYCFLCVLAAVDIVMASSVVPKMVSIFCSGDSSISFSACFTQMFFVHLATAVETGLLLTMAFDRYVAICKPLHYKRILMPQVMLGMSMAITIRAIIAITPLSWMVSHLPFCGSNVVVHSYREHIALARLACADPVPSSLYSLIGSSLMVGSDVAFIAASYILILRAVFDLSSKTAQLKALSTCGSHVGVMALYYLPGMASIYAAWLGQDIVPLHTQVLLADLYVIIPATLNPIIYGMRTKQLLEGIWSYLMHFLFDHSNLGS
In short: (§1)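 Values were gathered from published papers (main text and supplementary material), with extra details requested from the original authors when needed, and checked for typos and inconsistencies. Each receptor–molecule pair is called responsive (active) if the original authors judged the measured signal statistically different from baseline, and non-responsive (inactive) otherwise. Assay methods varied by source, often transient mammalian cell-line luciferase assays. Recorded details include cell line, G-protein, co-transfected protein and tags.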

O52J3 = system: T2, O52J3
T2 sequence (whole entry): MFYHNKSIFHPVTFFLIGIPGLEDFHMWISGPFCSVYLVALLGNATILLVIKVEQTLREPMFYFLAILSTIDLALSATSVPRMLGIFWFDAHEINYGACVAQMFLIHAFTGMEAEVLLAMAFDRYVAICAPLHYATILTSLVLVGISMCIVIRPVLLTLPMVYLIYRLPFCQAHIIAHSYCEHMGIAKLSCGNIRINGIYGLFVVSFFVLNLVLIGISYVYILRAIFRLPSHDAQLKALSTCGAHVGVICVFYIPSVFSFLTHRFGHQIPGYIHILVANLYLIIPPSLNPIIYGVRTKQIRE
In short: as §1

O52L1 = system: T3, O52L1
T3 sequence (whole entry): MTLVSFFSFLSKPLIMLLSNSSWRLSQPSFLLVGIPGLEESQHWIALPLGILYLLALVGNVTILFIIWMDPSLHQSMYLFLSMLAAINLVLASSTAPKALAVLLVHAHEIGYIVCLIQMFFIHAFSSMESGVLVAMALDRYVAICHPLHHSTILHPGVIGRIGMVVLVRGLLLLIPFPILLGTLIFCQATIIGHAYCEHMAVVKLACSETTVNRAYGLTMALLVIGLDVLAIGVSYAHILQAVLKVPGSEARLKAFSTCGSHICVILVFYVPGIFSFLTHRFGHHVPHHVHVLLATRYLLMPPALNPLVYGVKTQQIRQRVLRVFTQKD
In short: as §1

O52L2 = system: T4, O52L2
T4 sequence (whole entry): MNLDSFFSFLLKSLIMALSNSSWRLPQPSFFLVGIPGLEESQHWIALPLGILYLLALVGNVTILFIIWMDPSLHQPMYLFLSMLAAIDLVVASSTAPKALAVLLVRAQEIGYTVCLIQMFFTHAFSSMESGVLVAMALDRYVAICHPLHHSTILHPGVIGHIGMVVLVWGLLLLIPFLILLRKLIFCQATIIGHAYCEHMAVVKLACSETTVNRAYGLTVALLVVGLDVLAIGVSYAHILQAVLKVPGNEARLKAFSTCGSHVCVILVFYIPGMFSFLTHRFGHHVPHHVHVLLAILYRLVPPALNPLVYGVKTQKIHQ
In short: as §1

O52M1 = system: T5, O52M1
T5 sequence (whole entry): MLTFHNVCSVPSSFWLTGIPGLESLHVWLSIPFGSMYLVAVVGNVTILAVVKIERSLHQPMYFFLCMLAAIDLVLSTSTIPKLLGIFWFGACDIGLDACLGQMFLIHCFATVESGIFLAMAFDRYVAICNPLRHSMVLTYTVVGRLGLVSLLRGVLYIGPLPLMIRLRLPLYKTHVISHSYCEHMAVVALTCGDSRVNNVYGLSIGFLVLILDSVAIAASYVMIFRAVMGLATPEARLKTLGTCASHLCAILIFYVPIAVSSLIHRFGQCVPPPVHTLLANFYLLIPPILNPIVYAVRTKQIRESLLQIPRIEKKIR
In short: as §1

O52N1 = system: T6, O52N1
T6 sequence (whole entry): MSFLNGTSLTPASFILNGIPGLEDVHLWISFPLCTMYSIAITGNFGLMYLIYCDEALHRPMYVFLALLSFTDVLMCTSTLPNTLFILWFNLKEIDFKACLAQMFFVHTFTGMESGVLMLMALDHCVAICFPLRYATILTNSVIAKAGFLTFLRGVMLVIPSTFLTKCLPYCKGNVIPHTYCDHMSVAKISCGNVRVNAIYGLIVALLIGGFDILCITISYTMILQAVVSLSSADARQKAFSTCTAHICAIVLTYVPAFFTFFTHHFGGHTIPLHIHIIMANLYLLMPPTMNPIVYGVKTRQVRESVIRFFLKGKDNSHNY
In short: as §1

O52N2 = system: T7, O52N2
T7 sequence (whole entry): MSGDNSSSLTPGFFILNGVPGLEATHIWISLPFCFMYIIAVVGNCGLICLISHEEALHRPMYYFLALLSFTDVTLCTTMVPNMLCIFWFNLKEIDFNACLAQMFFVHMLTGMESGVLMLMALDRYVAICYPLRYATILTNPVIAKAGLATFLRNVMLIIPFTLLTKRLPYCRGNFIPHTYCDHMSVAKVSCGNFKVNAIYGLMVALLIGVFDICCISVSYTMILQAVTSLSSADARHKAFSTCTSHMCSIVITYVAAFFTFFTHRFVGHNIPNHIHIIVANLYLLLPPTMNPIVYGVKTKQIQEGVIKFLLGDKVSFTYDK
In short: as §1

O52N4 = system: T8, O52N4
T8 sequence (whole entry): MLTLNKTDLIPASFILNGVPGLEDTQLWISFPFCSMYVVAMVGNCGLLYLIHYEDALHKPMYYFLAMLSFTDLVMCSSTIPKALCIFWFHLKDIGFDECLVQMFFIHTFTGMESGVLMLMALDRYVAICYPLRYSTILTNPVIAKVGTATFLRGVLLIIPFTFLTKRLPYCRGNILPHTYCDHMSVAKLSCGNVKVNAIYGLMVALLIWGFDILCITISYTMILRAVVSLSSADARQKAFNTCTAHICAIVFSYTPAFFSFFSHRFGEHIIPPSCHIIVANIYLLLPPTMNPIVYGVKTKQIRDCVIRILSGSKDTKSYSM
In short: as §1

O52P1 = system: T9, O52P1
T9 sequence (whole entry): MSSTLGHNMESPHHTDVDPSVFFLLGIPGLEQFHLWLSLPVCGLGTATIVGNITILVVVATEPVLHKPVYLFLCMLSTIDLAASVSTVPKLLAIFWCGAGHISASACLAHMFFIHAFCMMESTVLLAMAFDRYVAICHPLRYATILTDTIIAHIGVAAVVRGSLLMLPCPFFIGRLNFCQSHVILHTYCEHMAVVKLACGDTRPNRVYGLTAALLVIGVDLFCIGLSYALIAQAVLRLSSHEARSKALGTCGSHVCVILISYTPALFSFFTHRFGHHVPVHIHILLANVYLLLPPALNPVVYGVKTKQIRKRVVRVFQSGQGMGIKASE
In short: as §1

O52R1 = system: T10, O52R1
T10 sequence (whole entry): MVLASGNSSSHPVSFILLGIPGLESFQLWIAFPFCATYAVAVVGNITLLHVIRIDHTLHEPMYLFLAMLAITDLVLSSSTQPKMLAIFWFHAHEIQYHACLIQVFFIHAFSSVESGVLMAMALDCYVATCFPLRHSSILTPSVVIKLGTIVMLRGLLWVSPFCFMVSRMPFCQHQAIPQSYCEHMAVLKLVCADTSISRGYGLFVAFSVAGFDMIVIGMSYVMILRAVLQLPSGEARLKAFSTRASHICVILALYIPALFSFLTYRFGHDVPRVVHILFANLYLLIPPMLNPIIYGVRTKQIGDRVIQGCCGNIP
In short: as §1

O52W1 = system: T11, O52W1
T11 sequence (whole entry): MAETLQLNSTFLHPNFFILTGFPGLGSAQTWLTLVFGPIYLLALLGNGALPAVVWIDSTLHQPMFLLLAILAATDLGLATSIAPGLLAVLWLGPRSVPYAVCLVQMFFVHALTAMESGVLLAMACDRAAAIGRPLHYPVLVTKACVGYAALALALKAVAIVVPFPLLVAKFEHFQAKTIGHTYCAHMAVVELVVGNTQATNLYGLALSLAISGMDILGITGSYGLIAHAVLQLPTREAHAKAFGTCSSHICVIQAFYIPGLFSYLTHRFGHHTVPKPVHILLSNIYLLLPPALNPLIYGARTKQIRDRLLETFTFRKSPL
In short: as §1

O56A3 = system: T12, O56A3
T12 sequence (whole entry): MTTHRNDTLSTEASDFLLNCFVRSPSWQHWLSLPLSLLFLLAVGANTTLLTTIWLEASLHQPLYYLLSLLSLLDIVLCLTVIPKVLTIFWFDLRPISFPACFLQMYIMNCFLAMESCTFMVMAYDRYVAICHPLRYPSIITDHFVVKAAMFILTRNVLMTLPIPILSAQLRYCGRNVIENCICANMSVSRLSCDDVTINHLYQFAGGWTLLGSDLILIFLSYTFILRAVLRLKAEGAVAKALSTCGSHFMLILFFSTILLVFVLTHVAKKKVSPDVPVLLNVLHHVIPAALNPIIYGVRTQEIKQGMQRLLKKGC
In short: as §1

O56B1 = system: T13, O56B1
T13 sequence (whole entry): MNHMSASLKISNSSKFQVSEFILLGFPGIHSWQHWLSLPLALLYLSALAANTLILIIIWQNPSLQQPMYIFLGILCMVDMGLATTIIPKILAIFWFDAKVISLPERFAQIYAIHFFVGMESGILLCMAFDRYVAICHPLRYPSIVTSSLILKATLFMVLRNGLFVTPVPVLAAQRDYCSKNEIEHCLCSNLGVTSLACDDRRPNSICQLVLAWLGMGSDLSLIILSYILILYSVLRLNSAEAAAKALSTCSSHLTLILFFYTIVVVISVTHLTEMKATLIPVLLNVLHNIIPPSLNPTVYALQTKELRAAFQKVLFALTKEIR
In short: as §1

O56B4 = system: T14, O56B4
T14 sequence (whole entry): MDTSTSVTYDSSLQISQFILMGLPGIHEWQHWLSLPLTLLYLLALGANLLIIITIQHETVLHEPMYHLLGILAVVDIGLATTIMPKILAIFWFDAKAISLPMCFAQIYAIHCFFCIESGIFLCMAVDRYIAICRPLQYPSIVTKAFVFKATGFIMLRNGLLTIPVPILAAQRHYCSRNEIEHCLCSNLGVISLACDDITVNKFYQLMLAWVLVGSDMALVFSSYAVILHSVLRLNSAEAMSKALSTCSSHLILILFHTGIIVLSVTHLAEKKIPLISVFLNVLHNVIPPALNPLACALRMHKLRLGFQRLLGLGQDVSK
In short: as §1

O5AC2 = system: T15, O5AC2
T15 sequence (whole entry): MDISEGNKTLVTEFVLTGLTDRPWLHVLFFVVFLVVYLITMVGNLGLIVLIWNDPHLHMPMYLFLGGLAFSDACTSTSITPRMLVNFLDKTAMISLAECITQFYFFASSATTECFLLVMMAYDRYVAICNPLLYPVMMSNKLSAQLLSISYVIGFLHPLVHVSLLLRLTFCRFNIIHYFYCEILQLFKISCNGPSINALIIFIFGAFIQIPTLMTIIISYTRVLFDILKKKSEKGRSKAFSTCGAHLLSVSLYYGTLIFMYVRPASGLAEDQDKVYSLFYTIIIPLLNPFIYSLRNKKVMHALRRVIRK
In short: as §1

O5AK2 = system: T16, O5AK2
T16 sequence (whole entry): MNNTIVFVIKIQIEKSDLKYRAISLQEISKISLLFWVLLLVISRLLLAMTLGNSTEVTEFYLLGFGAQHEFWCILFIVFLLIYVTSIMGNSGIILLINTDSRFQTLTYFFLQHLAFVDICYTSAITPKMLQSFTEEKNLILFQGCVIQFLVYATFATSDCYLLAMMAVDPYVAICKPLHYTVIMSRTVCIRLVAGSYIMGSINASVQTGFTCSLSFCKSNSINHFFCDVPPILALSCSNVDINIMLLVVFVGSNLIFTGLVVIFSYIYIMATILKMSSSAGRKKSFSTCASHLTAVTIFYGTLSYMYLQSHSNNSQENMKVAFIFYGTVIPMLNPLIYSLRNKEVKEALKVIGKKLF
In short: as §1

O5AK3 = system: T17, O5AK3
T17 sequence (whole entry): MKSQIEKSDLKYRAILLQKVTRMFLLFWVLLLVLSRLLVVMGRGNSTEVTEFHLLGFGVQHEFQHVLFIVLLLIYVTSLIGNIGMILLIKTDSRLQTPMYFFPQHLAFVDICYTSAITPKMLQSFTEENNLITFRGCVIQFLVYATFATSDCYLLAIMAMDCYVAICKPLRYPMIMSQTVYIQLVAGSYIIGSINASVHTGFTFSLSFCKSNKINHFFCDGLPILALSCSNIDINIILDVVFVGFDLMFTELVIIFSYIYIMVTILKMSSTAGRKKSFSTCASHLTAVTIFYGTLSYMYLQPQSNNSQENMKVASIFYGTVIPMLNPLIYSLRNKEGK
In short: as §1

Measured: odorant receptor agonist call

COc1ccccc1O
inactive: all assays above

CC12CCC(CC1)C(C)(C)O2
inactive: all assays above

COC(=O)c1ccccc1O
inactive: all assays above
